The test concerns the target human Notch2, full length, on transfected cells (human) (UniProt Q04721). Put plainly: FACS: hJAG1-rb Fc preclustered with PE donkey anti-rabbit on hNotch2 stably transfected 293 cells.

The chains behind the UniProt entries cited, without tags or fusion partners. Where a name states a change or a piece, a line headed by the entry shows the natural chain unless it says otherwise. Residues count along the entry.
UniProt Q04721: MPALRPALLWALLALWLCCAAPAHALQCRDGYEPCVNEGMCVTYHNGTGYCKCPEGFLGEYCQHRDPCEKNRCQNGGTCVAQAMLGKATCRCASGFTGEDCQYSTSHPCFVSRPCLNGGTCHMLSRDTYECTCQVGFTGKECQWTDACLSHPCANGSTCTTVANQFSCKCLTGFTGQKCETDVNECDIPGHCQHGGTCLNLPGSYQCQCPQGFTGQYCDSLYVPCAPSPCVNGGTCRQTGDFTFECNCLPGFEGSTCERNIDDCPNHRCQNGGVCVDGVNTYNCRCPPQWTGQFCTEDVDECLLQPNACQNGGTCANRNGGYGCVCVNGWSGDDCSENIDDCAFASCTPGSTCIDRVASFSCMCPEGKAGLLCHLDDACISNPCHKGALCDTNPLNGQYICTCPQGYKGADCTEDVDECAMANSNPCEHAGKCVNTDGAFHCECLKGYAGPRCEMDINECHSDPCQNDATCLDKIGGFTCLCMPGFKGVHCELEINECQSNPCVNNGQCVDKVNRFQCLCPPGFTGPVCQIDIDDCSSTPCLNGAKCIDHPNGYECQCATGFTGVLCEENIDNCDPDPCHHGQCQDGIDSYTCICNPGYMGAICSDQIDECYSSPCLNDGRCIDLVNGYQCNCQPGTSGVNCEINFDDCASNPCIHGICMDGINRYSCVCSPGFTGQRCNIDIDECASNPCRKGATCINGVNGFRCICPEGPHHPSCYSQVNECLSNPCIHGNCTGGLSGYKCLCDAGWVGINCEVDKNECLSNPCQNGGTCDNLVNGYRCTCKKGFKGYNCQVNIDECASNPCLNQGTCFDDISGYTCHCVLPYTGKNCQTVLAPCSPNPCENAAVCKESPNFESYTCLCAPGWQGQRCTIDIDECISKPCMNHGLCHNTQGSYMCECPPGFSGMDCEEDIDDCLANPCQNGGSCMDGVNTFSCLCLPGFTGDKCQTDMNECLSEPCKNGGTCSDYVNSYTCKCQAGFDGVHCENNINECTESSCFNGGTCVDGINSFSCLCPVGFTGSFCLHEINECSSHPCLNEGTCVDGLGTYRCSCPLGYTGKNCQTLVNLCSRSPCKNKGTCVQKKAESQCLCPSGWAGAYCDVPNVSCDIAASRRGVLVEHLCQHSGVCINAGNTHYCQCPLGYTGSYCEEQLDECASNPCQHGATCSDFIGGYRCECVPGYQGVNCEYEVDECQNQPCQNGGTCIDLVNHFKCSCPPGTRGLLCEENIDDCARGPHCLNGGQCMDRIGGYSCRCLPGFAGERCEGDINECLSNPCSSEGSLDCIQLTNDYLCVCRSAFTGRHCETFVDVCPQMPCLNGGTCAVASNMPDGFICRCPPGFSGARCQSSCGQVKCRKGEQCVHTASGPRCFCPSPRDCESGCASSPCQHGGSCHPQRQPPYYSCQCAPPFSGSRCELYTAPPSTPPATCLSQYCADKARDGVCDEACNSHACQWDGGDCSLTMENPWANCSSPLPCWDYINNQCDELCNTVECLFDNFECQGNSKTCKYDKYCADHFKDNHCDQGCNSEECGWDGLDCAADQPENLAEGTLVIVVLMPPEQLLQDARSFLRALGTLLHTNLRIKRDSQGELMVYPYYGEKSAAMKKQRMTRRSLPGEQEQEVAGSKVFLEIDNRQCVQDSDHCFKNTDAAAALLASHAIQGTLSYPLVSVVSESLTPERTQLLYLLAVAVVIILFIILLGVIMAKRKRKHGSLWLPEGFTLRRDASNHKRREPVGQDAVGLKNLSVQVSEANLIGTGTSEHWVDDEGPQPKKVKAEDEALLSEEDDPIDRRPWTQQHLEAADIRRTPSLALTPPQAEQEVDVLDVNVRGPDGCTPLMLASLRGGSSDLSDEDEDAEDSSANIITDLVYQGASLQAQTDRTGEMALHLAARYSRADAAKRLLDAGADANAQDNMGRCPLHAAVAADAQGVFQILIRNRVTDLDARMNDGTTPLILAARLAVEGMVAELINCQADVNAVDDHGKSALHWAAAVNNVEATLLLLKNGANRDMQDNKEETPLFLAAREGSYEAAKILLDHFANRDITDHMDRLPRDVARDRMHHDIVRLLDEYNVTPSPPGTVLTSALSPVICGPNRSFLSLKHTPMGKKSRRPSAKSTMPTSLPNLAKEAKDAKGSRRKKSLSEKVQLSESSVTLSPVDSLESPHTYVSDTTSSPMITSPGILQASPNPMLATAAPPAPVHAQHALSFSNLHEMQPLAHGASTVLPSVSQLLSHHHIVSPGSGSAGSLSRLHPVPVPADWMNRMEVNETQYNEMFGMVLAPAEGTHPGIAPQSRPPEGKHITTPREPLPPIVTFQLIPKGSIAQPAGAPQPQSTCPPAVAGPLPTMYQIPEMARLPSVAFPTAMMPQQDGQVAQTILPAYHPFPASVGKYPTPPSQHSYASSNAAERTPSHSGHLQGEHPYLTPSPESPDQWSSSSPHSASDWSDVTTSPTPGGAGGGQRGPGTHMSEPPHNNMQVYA
UniProt P78504, residues 34-1067: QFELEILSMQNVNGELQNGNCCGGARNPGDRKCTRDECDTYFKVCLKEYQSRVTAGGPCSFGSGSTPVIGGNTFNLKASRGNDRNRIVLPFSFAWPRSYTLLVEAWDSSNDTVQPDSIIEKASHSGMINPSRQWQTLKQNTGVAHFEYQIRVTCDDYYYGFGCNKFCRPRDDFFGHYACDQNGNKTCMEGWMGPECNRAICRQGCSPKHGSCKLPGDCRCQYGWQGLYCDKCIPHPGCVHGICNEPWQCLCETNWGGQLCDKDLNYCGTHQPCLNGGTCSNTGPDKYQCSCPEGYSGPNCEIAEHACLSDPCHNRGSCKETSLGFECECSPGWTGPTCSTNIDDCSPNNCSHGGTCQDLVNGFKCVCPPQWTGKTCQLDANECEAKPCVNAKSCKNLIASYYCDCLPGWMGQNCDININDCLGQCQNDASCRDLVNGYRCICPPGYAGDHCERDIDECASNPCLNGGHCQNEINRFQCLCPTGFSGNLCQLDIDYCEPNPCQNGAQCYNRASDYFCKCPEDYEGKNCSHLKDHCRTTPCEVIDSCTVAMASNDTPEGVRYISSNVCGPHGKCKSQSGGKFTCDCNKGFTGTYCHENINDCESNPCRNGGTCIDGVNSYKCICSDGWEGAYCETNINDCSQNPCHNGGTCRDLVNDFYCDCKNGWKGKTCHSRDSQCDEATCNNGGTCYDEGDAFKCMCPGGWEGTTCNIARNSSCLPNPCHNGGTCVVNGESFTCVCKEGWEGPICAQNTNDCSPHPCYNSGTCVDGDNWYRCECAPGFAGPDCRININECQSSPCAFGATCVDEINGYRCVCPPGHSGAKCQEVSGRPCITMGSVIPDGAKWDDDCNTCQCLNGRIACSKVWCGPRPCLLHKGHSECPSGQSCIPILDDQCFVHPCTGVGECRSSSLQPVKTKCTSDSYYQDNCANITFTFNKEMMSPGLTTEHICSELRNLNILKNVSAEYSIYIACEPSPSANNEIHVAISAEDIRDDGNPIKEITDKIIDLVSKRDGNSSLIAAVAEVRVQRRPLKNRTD

Results are given in words; binding and its absence hold for the method and conditions named. Some results given as binding are weak or reduced against the parent protein; the word gives no strength.

Turning to “hJAG1-rb Fc (from UniProt P78504 34-1067) (Fc fusion)”, the binding result is given as “binds”.

The values above are taken from patent publication US20130260455A1.
